{"sequences": {"note": "Chains of the proteins cited; added tags and fusions are not shown. Lines headed by an entry give the natural chain unless they say otherwise; changes in a name come on top.", "UniProt P61006": "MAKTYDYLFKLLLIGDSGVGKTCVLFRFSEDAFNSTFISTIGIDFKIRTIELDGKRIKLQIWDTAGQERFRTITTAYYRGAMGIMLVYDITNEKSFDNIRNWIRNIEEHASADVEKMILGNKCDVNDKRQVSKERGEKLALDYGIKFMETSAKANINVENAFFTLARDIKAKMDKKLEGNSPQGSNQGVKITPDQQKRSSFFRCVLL", "UniProt P61026": "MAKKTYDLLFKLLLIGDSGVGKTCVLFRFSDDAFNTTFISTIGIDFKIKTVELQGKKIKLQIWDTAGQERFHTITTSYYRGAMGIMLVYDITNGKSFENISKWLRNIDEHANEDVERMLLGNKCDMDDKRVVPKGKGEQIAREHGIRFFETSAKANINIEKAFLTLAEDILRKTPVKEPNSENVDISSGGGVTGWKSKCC", "UniProt Q5S007": "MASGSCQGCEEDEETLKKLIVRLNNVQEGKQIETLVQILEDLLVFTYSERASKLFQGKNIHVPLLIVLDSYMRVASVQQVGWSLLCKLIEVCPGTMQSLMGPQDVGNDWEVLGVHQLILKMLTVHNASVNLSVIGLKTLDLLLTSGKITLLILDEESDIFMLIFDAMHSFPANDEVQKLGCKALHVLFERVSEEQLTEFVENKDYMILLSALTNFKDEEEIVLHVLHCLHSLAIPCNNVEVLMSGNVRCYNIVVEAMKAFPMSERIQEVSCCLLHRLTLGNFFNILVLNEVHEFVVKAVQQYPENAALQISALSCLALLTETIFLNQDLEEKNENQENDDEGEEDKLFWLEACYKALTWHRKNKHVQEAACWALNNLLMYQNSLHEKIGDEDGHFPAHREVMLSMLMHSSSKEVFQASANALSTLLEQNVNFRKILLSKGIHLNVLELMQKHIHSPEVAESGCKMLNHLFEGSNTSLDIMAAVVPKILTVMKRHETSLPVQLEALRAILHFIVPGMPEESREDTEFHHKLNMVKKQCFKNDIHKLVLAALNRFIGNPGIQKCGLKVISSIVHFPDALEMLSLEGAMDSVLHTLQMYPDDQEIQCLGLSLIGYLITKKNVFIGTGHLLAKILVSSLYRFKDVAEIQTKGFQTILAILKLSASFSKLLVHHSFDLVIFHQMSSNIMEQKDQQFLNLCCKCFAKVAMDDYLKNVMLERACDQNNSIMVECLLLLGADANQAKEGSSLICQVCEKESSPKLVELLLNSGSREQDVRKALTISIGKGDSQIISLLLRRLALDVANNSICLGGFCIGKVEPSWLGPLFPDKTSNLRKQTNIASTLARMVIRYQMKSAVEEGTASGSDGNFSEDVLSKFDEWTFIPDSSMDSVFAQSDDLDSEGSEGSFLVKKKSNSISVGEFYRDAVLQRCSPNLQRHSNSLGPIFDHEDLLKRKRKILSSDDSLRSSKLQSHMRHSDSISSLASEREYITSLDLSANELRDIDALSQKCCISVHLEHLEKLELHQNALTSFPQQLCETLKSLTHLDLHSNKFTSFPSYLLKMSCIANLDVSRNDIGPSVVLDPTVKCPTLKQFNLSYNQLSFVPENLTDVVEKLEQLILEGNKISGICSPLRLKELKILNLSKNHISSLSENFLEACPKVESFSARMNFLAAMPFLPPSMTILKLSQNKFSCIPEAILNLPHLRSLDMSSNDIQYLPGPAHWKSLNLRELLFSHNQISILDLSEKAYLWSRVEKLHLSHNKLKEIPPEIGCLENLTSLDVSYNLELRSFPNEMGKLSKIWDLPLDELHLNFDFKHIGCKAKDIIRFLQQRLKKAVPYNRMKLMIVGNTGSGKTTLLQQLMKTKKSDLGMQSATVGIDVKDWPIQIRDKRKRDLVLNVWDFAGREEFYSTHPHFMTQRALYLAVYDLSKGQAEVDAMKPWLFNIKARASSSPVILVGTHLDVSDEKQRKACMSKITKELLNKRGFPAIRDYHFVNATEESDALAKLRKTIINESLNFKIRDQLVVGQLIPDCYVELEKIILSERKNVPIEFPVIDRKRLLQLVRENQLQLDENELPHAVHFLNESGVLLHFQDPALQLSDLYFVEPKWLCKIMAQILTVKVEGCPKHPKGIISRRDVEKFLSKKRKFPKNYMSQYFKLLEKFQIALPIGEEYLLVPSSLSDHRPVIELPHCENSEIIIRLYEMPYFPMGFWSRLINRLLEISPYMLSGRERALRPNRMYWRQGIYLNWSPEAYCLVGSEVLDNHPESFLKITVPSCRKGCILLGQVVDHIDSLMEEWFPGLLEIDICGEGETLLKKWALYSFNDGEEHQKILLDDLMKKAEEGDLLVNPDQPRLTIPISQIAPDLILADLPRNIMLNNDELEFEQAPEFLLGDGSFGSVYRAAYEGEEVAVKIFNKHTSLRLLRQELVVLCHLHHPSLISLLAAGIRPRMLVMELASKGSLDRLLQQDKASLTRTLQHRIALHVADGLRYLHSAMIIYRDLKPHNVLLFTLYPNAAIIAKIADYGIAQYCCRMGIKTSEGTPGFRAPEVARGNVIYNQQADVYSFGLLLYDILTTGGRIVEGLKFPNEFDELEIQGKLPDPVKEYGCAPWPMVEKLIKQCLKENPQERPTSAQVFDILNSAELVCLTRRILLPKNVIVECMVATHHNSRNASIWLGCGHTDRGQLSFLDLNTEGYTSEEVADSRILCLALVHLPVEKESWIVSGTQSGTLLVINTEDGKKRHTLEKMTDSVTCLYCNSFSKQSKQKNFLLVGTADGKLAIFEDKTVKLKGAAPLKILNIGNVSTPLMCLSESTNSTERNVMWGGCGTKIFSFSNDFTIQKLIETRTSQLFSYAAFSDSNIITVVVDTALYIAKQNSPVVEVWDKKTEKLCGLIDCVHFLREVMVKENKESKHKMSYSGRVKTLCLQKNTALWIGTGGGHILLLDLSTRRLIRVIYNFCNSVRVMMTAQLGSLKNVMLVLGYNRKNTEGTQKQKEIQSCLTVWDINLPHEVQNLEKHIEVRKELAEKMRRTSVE", "UniProt P32019": "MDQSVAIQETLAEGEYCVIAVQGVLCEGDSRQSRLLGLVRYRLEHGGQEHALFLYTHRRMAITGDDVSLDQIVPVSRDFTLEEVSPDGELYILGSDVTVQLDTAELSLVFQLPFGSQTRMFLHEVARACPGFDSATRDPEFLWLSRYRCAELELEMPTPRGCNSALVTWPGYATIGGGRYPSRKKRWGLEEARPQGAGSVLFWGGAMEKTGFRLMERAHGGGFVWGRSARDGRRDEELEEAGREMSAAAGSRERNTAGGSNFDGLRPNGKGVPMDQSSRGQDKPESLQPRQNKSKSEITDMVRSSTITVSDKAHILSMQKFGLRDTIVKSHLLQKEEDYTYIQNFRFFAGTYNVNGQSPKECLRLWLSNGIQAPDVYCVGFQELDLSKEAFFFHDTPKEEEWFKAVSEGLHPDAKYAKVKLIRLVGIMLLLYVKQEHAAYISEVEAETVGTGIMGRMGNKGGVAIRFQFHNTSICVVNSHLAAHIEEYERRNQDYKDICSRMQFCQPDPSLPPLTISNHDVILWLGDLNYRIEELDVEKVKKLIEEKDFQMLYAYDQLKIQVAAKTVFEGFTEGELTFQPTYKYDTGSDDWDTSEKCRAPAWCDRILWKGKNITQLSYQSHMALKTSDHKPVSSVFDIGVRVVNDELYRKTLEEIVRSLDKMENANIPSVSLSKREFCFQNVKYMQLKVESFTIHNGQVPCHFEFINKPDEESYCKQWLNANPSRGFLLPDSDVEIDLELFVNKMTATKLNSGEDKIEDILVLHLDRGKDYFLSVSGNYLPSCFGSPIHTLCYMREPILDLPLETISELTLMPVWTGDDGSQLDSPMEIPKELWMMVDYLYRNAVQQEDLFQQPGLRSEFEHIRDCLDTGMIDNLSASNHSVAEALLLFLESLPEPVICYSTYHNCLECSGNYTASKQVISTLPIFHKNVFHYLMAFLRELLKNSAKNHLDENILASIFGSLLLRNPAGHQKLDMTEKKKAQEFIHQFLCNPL"}, "source": "paper PMC4769169", "about": "(eLife, 2016)", "molecules": {"B1": {"name": "Rabin8 (Rab3IP), endogenous (protein, UniProt Q96QF0 1-476)", "chain": "MGLKKMKGLSYDEAFAMANDPLEGFHEVNLASPTSPDLLGVYESGTQEQTTSPSVIYRPHPSALSSVPIQANALDVSELPTQPVYSSPRRLNCAEISSISFHVTDPAPCSTSGVTAGLTKLTTRKDNYNAEREFLQGATITEACDGSDDIFGLSTDSLSRLRSPSVLEVREKGYERLKEELAKAQRELKLKDEECERLSKVRDQLGQELEELTASLFEEAHKMVREANIKQATAEKQLKEAQGKIDVLQAEVAALKTLVLSSSPTSPTQEPLPGGKTPFKKGHTRNKSTSSAMSGSHQDLSVIQPIVKDCKEADLSLYNEFRLWKDEPTMDRTCPFLDKIYQEDIFPCLTFSKSELASAVLEAVENNTLSIEPVGLQPIRFVKASAVECGGPKKCALTGQSKSCKHRIKLGDSSNYYYISPFCRYRITSVCNFFTYIRYIQQGLVKQQDVDQMFWEVMQLRKEMSLAKLGYFKEEL"}, "B2": {"name": "TBC1D15 (protein, UniProt Q8TC07 1-691)", "chain": "MAAAGVVSGKIIYEQEGVYIHSSCGKTNDQDGLISGILRVLEKDAEVIVDWRPLDDALDSSSILYARKDSSSVVEWTQAPKERGHRGSEHLNSYEAEWDMVNTVSFKRKPHTNGDAPSHRNGKSKWSFLFSLTDLKSIKQNKEGMGWSYLVFCLKDDVVLPALHFHQGDSKLLIESLEKYVVLCESPQDKRTLLVNCQNKSLSQSFENLLDEPAYGLIQAGLLDRRKLLWAIHHWKKIKKDPYTATMIGFSKVTNYIFDSLRGSDPSTHQRPPSEMADFLSDAIPGLKINQQEEPGFEVITRIDLGERPVVQRREPVSLEEWTKNIDSEGRILNVDNMKQMIFRGGLSHALRKQAWKFLLGYFPWDSTKEERTQLQKQKTDEYFRMKLQWKSISQEQEKRNSRLRDYRSLIEKDVNRTDRTNKFYEGQDNPGLILLHDILMTYCMYDFDLGYVQGMSDLLSPLLYVMENEVDAFWCFASYMDQMHQNFEEQMQGMKTQLIQLSTLLRLLDSGFCSYLESQDSGYLYFCFRWLLIRFKREFSFLDILRLWEVMWTELPCTNFHLLLCCAILESEKQQIMEKHYGFNEILKHINELSMKIDVEDILCKAEAISLQMVKCKELPQAVCEILGLQGSEVTTPDSDVGEDENVVMTPCPTSAFQSNALPTLSASGARNDSPTQIPVSSDVCRLTPA"}, "B3": {"name": "Rab GDP dissociation inhibitor α (GDI1) (protein, UniProt P31150 1-447)", "chain": "MDEEYDVIVLGTGLTECILSGIMSVNGKKVLHMDRNPYYGGESSSITPLEELYKRFQLLEGPPESMGRGRDWNVDLIPKFLMANGQLVKMLLYTEVTRYLDFKVVEGSFVYKGGKIYKVPSTETEALASNLMGMFEKRRFRKFLVFVANFDENDPKTFEGVDPQTTSMRDVYRKFDLGQDVIDFTGHALALYRTDDYLDQPCLETVNRIKLYSESLARYGKSPYLYPLYGLGELPQGFARLSAIYGGTYMLNKPVDDIIMENGKVVGVKSEGEVARCKQLICDPSYIPDRVRKAGQVIRIICILSHPIKNTNDANSCQIIIPQNQVNRKSDIYVCMISYAHNVAAQGKYIAIASTTVETTDPEKEVEPALELLEPIDQKFVAISDLYEPIDDGCESQVFCSCSYDATTHFETTCNDIKDIYKRMAGTAFDFENMKRKQNDVFGEAEQ"}, "B4": {"name": "Rab GDP dissociation inhibitor β (GDI2) (protein, UniProt P50395 1-445)", "chain": "MNEEYDVIVLGTGLTECILSGIMSVNGKKVLHMDRNPYYGGESASITPLEDLYKRFKIPGSPPESMGRGRDWNVDLIPKFLMANGQLVKMLLYTEVTRYLDFKVTEGSFVYKGGKIYKVPSTEAEALASSLMGLFEKRRFRKFLVYVANFDEKDPRTFEGIDPKKTTMRDVYKKFDLGQDVIDFTGHALALYRTDDYLDQPCYETINRIKLYSESLARYGKSPYLYPLYGLGELPQGFARLSAIYGGTYMLNKPIEEIIVQNGKVIGVKSEGEIARCKQLICDPSYVKDRVEKVGQVIRVICILSHPIKNTNDANSCQIIIPQNQVNRKSDIYVCMISFAHNVAAQGKYIAIVSTTVETKEPEKEIRPALELLEPIEQKFVSISDLLVPKDLGTESQIFISRTYDATTHFETTCDDIKNIYKRMTGSEFDFEEMKRKKNDIYGED"}, "B5": {"name": "CHM (protein, UniProt P24386 1-653)", "chain": "MADTLPSEFDVIVIGTGLPESIIAAACSRSGRRVLHVDSRSYYGGNWASFSFSGLLSWLKEYQENSDIVSDSPVWQDQILENEEAIALSRKDKTIQHVEVFCYASQDLHEDVEEAGALQKNHALVTSANSTEAADSAFLPTEDESLSTMSCEMLTEQTPSSDPENALEVNGAEVTGEKENHCDDKTCVPSTSAEDMSENVPIAEDTTEQPKKNRITYSQIIKEGRRFNIDLVSKLLYSRGLLIDLLIKSNVSRYAEFKNITRILAFREGRVEQVPCSRADVFNSKQLTMVEKRMLMKFLTFCMEYEKYPDEYKGYEEITFYEYLKTQKLTPNLQYIVMHSIAMTSETASSTIDGLKATKNFLHCLGRYGNTPFLFPLYGQGELPQCFCRMCAVFGGIYCLRHSVQCLVVDKESRKCKAIIDQFGQRIISEHFLVEDSYFPENMCSRVQYRQISRAVLITDRSVLKTDSDQQISILTVPAEEPGTFAVRVIELCSSTMTCMKGTYLVHLTCTSSKTAREDLESVVQKLFVPYTEMEIENEQVEKPRILWALYFNMRDSSDISRSCYNDLPSNVYVCSGPDCGLGNDNAVKQAETLFQEICPNEDFCPPPPNPEDIILDGDSLQPEASESSAIPEANSETFKESTNLGNLEESSE"}, "B6": {"name": "CHML (protein, UniProt P26374 1-656)", "chain": "MADNLPTEFDVVIIGTGLPESILAAACSRSGQRVLHIDSRSYYGGNWASFSFSGLLSWLKEYQQNNDIGEESTVVWQDLIHETEEAITLRKKDETIQHTEAFCYASQDMEDNVEEIGALQKNPSLGVSNTFTEVLDSALPEESQLSYFNSDEMPAKHTQKSDTEISLEVTDVEESVEKEKYCGDKTCMHTVSDKDGDKDESKSTVEDKADEPIRNRITYSQIVKEGRRFNIDLVSKLLYSQGLLIDLLIKSDVSRYVEFKNVTRILAFREGKVEQVPCSRADVFNSKELTMVEKRMLMKFLTFCLEYEQHPDEYQAFRQCSFSEYLKTKKLTPNLQHFVLHSIAMTSESSCTTIDGLNATKNFLQCLGRFGNTPFLFPLYGQGEIPQGFCRMCAVFGGIYCLRHKVQCFVVDKESGRCKAIIDHFGQRINAKYFIVEDSYLSEETCSNVQYKQISRAVLITDQSILKTDLDQQTSILIVPPAEPGACAVRVTELCSSTMTCMKDTYLVHLTCSSSKTAREDLESVVKKLFTPYTETEINEEELTKPRLLWALYFNMRDSSGISRSSYNGLPSNVYVCSGPDCGLGNEHAVKQAETLFQEIFPTEEFCPPPPNPEDIIFDGDDKQPEAPGTNNVVMAKLESSEESKNLESPEKHLQN"}, "B7": {"name": "RabGGTA (protein, UniProt Q92696 1-567)", "chain": "MHGRLKVKTSEEQAEAKRLEREQKLKLYQSATQAVFQKRQAGELDESVLELTSQILGANPDFATLWNCRREVLQQLETQKSPEELAALVKAELGFLESCLRVNPKSYGTWHHRCWLLGRLPEPNWTRELELCARFLEVDERNFHCWDYRRFVATQAAVPPAEELAFTDSLITRNFSNYSSWHYRSCLLPQLHPQPDSGPQGRLPEDVLLKELELVQNAFFTDPNDQSAWFYHRWLLGRADPQDALRCLHVSRDEACLTVSFSRPLLVGSRMEILLLMVDDSPLIVEWRTPDGRNRPSHVWLCDLPAASLNDQLPQHTFRVIWTAGDVQKECVLLKGRQEGWCRDSTTDEQLFRCELSVEKSTVLQSELESCKELQELEPENKWCLLTIILLMRALDPLLYEKETLQYFQTLKAVDPMRATYLDDLRSKFLLENSVLKMEYAEVRVLHLAHKDLTVLCHLEQLLLVTHLDLSHNRLRTLPPALAALRCLEVLQASDNAIESLDGVTNLPRLQELLLCNNRLQQPAVLQPLASCPRLVLLNLQGNPLCQAVGILEQLAELLPSVSSVLT"}, "B8": {"name": "RabGGTB (protein, UniProt P53611 1-331)", "chain": "MGTPQKDVIIKSDAPDTLLLEKHADYIASYGSKKDDYEYCMSEYLRMSGIYWGLTVMDLMGQLHRMNREEILAFIKSCQHECGGISASIGHDPHLLYTLSAVQILTLYDSINVIDVNKVVEYVKGLQKEDGSFAGDIWGEIDTRFSFCAVATLALLGKLDAINVEKAIEFVLSCMNFDGGFGCRPGSESHAGQIYCCTGFLAITSQLHQVNSDLLGWWLCERQLPSGGLNGRPEKLPDVCYSWWVLASLKIIGRLHWIDREKLRNFILACQDEETGGFADRPGDMVDPFHTLFGIAGLSLLGEEQIKPVNPVFCMPEEVLQRVNVQPELVS"}}, "key": {"HA-Rab8a (wild type)": {"target": "HA-Rab8a (wild type) (UniProt P61006)", "experiment": "affinity purification with mass spectrometry; HEK293 cells expressing flag-LRRK2-G2019S alone or in combination with HA-Rab8a, HA-Rab10 or HA-Rab12; interactors of the Rab quantified by MS (n=4 for Rab8a)"}, "[1]": {"target": "T1, HA-Rab12 (wild type) (human) (UniProt Q6IQ22)", "T1 sequence": "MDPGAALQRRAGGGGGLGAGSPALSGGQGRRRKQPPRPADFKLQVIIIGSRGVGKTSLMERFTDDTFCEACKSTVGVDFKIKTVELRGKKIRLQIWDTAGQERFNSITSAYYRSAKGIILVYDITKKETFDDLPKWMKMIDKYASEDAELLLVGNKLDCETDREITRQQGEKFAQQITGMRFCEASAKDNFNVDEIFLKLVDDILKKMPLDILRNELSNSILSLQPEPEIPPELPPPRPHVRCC", "experiment": "affinity purification with mass spectrometry; HEK293 cells expressing flag-LRRK2-G2019S alone or in combination with HA-Rab8a, HA-Rab10 or HA-Rab12; interactors of the Rab quantified by MS (n=4 for Rab8a)"}, "GFP-Rab8a (T72A)": {"target": "GFP-Rab8a (T72A) (UniProt P61006)", "experiment": "affinity purification with mass spectrometry; GFP-Rab8a T72A or T72E transiently expressed in HEK293; lysis in NP-40 extraction buffer; lysates incubated with GFP beads (Chromotek) for 2 hr; on-bead digestion; n=4"}, "HA-Rab10 T73A": {"target": "HA-Rab10 T73A (UniProt P61026)", "experiment": "affinity purification with mass spectrometry; Rab10 T73A/T73E (n=3) and Rab12 S106A/S106E (n=4) immunoprecipitated, interactors quantified by MS"}, "HA-Rab12 S106E (human)": {"target": "T2, HA-Rab12 S106E (human) (UniProt Q6IQ22)", "T2 sequence": "T1 sequence with S106E", "experiment": "affinity purification with mass spectrometry; Rab10 T73A/T73E (n=3) and Rab12 S106A/S106E (n=4) immunoprecipitated, interactors quantified by MS"}, "HA-Rab10 T73E": {"target": "HA-Rab10 T73E (UniProt P61026)", "experiment": "affinity purification with mass spectrometry; Rab10 T73A/T73E (n=3) and Rab12 S106A/S106E (n=4) immunoprecipitated, interactors quantified by MS"}, "HA-Rab12 S106A (human)": {"target": "T3, HA-Rab12 S106A (human) (UniProt Q6IQ22)", "T3 sequence": "T1 sequence with S106A", "experiment": "affinity purification with mass spectrometry; Rab10 T73A/T73E (n=3) and Rab12 S106A/S106E (n=4) immunoprecipitated, interactors quantified by MS"}}, "note": "Changes are numbered by the printed parent chain. No constants are given. Whether binding was seen depends on the method and setting. Binding seen in cells or lysates may run through a third protein. A yes stands for co-enrichment or nearness to the bait. Other partners may have been found. For some of these results: A no says only that the protein was not detected with the bait. For some of these results: Sequences can lack the tags named with a protein."}
{"molecule": "flag-LRRK2-G2019S (from UniProt Q5S007 1-2527) (enzyme)", "values": [{"measurement": "binding", "setting": "HA-Rab8a (wild type)", "result": "binds"}, {"measurement": "binding", "setting": "[1]", "result": "binds"}]}
{"molecule": "INPP5B (from UniProt P32019 1-993)", "values": [{"measurement": "binding", "setting": "GFP-Rab8a (T72A)", "result": "binds"}]}
{"molecule": "B1", "values": [{"measurement": "binding", "setting": "GFP-Rab8a (T72A)", "result": "binds"}]}
{"molecule": "B2", "values": [{"measurement": "binding", "setting": "GFP-Rab8a (T72A)", "result": "binds"}]}
{"molecule": "B3", "values": [{"measurement": "binding", "setting": "HA-Rab10 T73A", "result": "binds"}, {"measurement": "binding", "setting": "HA-Rab12 S106E (human)", "result": "no binding"}, {"measurement": "binding", "setting": "HA-Rab10 T73E", "result": "no binding"}, {"measurement": "binding", "setting": "HA-Rab12 S106A (human)", "result": "binds"}, {"measurement": "binding", "setting": "GFP-Rab8a (T72A)", "result": "binds"}]}
{"molecule": "B4", "values": [{"measurement": "binding", "setting": "HA-Rab10 T73A", "result": "binds"}, {"measurement": "binding", "setting": "HA-Rab12 S106E (human)", "result": "no binding"}, {"measurement": "binding", "setting": "HA-Rab10 T73E", "result": "no binding"}, {"measurement": "binding", "setting": "HA-Rab12 S106A (human)", "result": "binds"}, {"measurement": "binding", "setting": "GFP-Rab8a (T72A)", "result": "binds"}]}
{"molecule": "B5", "values": [{"measurement": "binding", "setting": "GFP-Rab8a (T72A)", "result": "binds"}]}
{"molecule": "B6", "values": [{"measurement": "binding", "setting": "GFP-Rab8a (T72A)", "result": "binds"}]}
{"molecule": "B7", "values": [{"measurement": "binding", "setting": "GFP-Rab8a (T72A)", "result": "binds"}]}
{"molecule": "B8", "values": [{"measurement": "binding", "setting": "GFP-Rab8a (T72A)", "result": "binds"}]}
